# PubChem BioAssay (NCATS)
# By UniProt entry, the sequences of proteins in these tests, tags left out. Where a name states a change or a piece, a line headed by the entry shows the natural chain unless it says otherwise.
# UniProt P50135: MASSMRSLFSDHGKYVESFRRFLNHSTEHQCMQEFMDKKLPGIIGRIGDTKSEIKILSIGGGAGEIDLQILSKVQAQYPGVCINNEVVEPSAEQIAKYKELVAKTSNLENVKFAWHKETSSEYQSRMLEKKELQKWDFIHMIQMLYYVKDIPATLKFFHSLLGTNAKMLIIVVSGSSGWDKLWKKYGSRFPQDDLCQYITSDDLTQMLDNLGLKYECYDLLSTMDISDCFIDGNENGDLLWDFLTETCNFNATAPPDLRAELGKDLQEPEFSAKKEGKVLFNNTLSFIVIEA
# UniProt P11086: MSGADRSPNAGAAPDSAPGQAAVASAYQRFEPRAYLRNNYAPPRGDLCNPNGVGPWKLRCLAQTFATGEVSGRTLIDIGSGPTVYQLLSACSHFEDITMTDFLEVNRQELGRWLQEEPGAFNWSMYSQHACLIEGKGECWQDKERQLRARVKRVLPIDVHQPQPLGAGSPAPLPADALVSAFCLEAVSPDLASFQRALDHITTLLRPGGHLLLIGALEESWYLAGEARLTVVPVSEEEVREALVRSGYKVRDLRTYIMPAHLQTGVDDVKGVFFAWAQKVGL
# “And” between values parts separate entries of the source, which are not always exact repeats. Equal values may be shown once. The list shows a part of the results. Shown are side measurements of this screen, not its main read-out; they come without a call. Compounds called inactive in the main read-out are mostly missing here. Words in brackets tell the shape of the fitted curve; partial curves, single points and poor fits give uncertain potencies.
# What was measured:
# [1] = Validation of Assay for Modulators of Lamin A Splicing (AID 1459); settings: Lamin A splicing dual RFP/GFP fluorescence reporter, ratio
# Outline: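 Readout: ratio of GFP (500-530 nm) to RFP (575-640 nm) total object intensity by 488 nm laser-scanning cytometry after 48 hrs. Cells were HeLa S3 clones carrying lamin A-EGFP minigene plus DsRed2 viability reporter; vehicle 0.5% DMSO final.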
# [2] = qHTS Assay for Lipid Storage Modulators (AID 1519); settings: Drosophila S3 cells, BODIPY lipid droplet/cell ratio, laser cytometry, cells loaded with oleic acid
# Outline: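 Cells seeded at 5,000 per well were treated with compounds over a concentration series and loaded with oleic acid (400 uM, as added). Lipid droplet fluorescence (488 nm excitation, 500-530 nm channel) was read by laser-scanning cytometry and normalized to 20 uM Triacsin C.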
# [3] = qHTS Assay for Modulators of Human Peripheral Myelin Protein 22 (PMP22) Expression/Activity (AID 1967); settings: Cell-based PMP22 reporter, dual-color luciferase ratio
# Outline: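 Mouse MSC80 Schwann line, Pmp22 promoter–CBG68 reporter, EF-alpha–CBR internal control. 24h compound exposure, 37 °C/5% CO2, DMEM + 10% FBS. Readout: corrected green/red luminescence ratio, normalized to untreated cells; concentration-response curves fitted and classified.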
# [4] = Nrf2 qHTS screen for inhibitors: Validation (AID 493153); settings: A549 ARE-Fluc reporter, 18-24 h; AC50: CellTiter-Fluor fluorescence read, measured here: cytotoxicity CellTiter-Fluor AC50; viability change: measured here: cytotoxicity max response
# Outline: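 Concentration-response test in A549 ARE_Fluc reporter cells (5% FBS OPTI-MEM), compound exposure 18-24 h at 37°C, 5% CO2. Cell viability measured first by CellTiter-Fluor fluorescence; ARE-driven luciferase luminescence then measured as Nrf2 activity.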
# [5] = qHTS Validation Assay to Find Inhibitors of Chronic Active B-Cell Receptor Signaling (AID 485345); settings: ABC-DLBCL cells, chronic BCR signaling reporter
# Outline: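 TMD8 ABC-DLBCL cells with dox-inducible green luciferase–IκBα fusion and red native luciferase; compounds 46 uM–3 nM, 4 h at 37C with doxycycline in 0.5% FBS IMDM. Green/red ratio normalized to basal and 10 uM MG-132.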
# [6] = S16 Schwann cell PMP22 intronic element beta-lactamase assay (AID 624044); settings: S16 rat Schwann cells, PMP22 element beta-lactamase FRET, 24 h; measured here: 460 nm blue channel
# Outline: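 Beta-lactamase reporter under a PMP22 intronic regulatory element in stable S16 rat Schwann cells; 24 h compound exposure. 460 nm blue signal normalized between DMSO (0%) and potassium clavulanate, with 535 nm FRET tracking viability; curves classed by r2 and response.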
# [7] = A High-Content qHTS Against Drug Library for the Identification of Small Molecules that Inhibit DYT1 Early Onset Primary Dystonia-Associated Cell Pathology (AID 1645839); settings: HEK293 Flp-In EGFP-delE TorsinA, punctate imaging, 48 h; measured here: cell count cytotoxicity
# Outline: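 Induced EGFP-delE TorsinA cells are imaged after 48 h of compound treatment. Punctate fusion-protein distribution gives the %pathology value, while nuclei counts flag toxicity. Wild-type EGFP-hTOR1A cells define the normal pattern.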
# [8] = molecular target: Histamine N-methyltransferase (Homo sapiens) (UniProt P50135); experiment: Confirmatory Screen for Target Class Profiling of Small Molecule Inhibitors of Methyltransferases (AID 1745852); settings: MTase-Glo luminescence, SAH detection, recombinant enzyme; measured here: HNMT inhibition potency
# [9] = molecular target: Phenylethanolamine N-methyltransferase (Homo sapiens) (UniProt P11086); experiment: as above; settings: MTase-Glo luminescence, SAH detection, recombinant enzyme; measured here: PNMT inhibition potency
# [10] = measured here: cell count channel max response
# [11] = measured here: lipid channel max response
# [12] = measured here: green reporter channel AC50, mouse Pmp22 promoter in mouse Schwann cells
# [13] = measured here: red reporter channel AC50, EF-alpha promoter control reporter in MSC80 mouse Schwann cells
# [14] = measured here: cell number channel AC50
# [15] = measured here: lipid (BODIPY) channel AC50
# [16] = measured here: CBR control luciferase (viability counter)
structure (smiles),measurement,setting,value
CN1CCc2cc(O)cc3c2C1Cc1ccc(O)c(O)c1-3 (stereo unspecified),AC50,[1]; measured here: GFP channel,"22.4 µM [falling, single point]"
same,AC50,[1]; measured here: RFP channel,"25.1 µM [falling, partial curve]"
same,max response,[2]; [10],49.1%
same,max response,[2]; [11],52.4%
same,AC50,[3]; [12],"30.1 µM [falling, full curve]"
same,AC50,[3]; [13],"37.9 µM [falling, full curve]"
CCCN1CCc2cccc3c2C1Cc1ccc(O)c(O)c1-3 (stereo unspecified),AC50,[1]; measured here: GFP channel,"35.5 µM [falling, single point]"
same,AC50,[1]; measured here: RFP channel,"17.8 µM [falling, partial curve]"
same,AC50,[3]; [12],"33.8 µM [falling, partial curve]"
same,AC50,[3]; [13],"42.6 µM [falling, partial curve]"
COc1ccc(Cc2nccc3cc(OC)c(OC)cc23)cc1OC,AC50,[1]; measured here: GFP channel,"10 µM [falling, partial curve, poor fit]"
same,AC50,[1]; measured here: RFP channel,"20 µM [falling, partial curve, poor fit]"
same,AC50,[2]; [14],"12.6 µM [falling, single point] and 708 nM [rising, full curve] and 12.6 µM [falling, partial curve, poor fit]"
same,AC50,[2]; [15],"14.1 µM [falling, single point] and 631 nM [rising, full curve] and 12.6 µM [falling, partial curve, poor fit]"
same,AC50,[3]; [12],"33.8 µM [falling, partial curve]"
same,AC50,[3]; [13],"37.9 µM [falling, partial curve]"
CN1CC[C@@]2(C)c3cc(O)ccc3N(C)C12 (stereo partly specified),AC50,[1]; measured here: GFP channel,"14.1 µM [falling, single point]"
same,AC50,[1]; measured here: RFP channel,"11.2 µM [falling, partial curve]"
same,AC50,[3]; [12],"84.9 µM [falling, single point]"
same,AC50,[3]; [13],"95.3 µM [falling, single point]"
same,AC50,[4],"18.4 µM [falling, single point]"
same,viability change,[4],-37.9%
Nc1nc(N)c2nc(CNc3ccc(C(=O)NC(CCC(=O)O)C(=O)O)cc3)cnc2n1 (stereo unspecified),AC50,[1]; measured here: GFP channel,"0.0316 µM [falling, full curve]"
same,AC50,[1]; measured here: RFP channel,"0.0316 µM [falling, full curve]"
same,viability change,[4],4.51%
c1ccc2c(c1)OCC(C1=NCCN1)O2 (stereo unspecified),AC50,[1]; measured here: GFP channel,"15.8 µM [falling, single point]"
same,AC50,[3]; [12],"23.9 µM [falling, full curve]"
same,AC50,[3]; [13],"26.9 µM [falling, full curve]"
same,AC50,[5]; measured here: CBG/CBR ratio read-out,"18.4 µM [falling, partial curve]"
same,AC50,[5]; [16],"8.2 µM [falling, partial curve]"
same,AC50,[4],"16.4 µM [falling, partial curve, poor fit]"
same,viability change,[4],-24%
same,AC50,[6],"14.1 µM [falling, single point]"
same,AC50,[7],"12.6 µM [falling, single point]"
O=c1oc(Cl)c(Cl)c2ccccc12,AC50,[1]; measured here: GFP channel,"35.5 µM [falling, single point]"
same,AC50,[1]; measured here: RFP channel,"35.5 µM [falling, single point]"
same,AC50,[3]; [12],"67.5 µM [falling, partial curve, poor fit]"
same,AC50,[5]; [16],"10.3 µM [falling, partial curve]"
OCCN1CCN(CCCN2c3ccccc3Sc3ccc(C(F)(F)F)cc32)CC1,AC50,[1]; measured here: GFP channel,"31.6 µM [falling, single point]"
same,AC50,[1]; measured here: RFP channel,"25.1 µM [falling, single point]"
same,AC50,[3]; [12],"26.9 µM [falling, full curve]"
same,AC50,[3]; [13],"33.8 µM [falling, full curve]"
same,AC50,[6],"22.4 µM [falling, partial curve]"
Oc1ccccc1O,AC50,[1]; measured here: GFP channel,"7.94 µM [falling, single point]"
same,AC50,[1]; measured here: RFP channel,"35.5 µM [falling, single point]"
same,AC50,[3]; [12],"84.9 µM [falling, single point]"
same,AC50,[3]; [13],"75.7 µM [falling, single point]"
same,AC50,[5]; [16],"29.1 µM [falling, single point]"
CC(=O)[C@H]1CCC2C3CC[C@H]4C[C@H](O)CC[C@]4(C)C3CC[C@@]21C (stereo partly specified),AC50,[1]; measured here: GFP channel,"12.6 µM [rising, partial curve]"
same,AC50,[3]; [12],"67.5 µM [falling, partial curve]"
same,AC50,[3]; [13],"67.5 µM [falling, partial curve]"
NC(N)=N/N=C/c1c(Cl)cccc1Cl,AC50,[1]; measured here: RFP channel,"3.55 µM [falling, full curve, poor fit]"
same,max response,[2]; [10],44.5%
same,AC50,[2]; [14],"35.5 µM [rising, single point]"
same,AC50,[2]; [15],"35.5 µM [rising, single point]"
same,max response,[2]; [11],46.2%
C[N+]1(C)CCC(OC(=O)C(c2ccccc2)c2ccccc2)CC1,AC50,[1]; measured here: GFP channel,"35.5 µM [falling, single point]"
same,AC50,[1]; measured here: RFP channel,"35.5 µM [falling, single point]"
same,AC50,[3]; [13],"12 µM [rising, partial curve, poor fit]"
CC(N)c1cccc(Cl)c1Cl (stereo unspecified),AC50,[1]; measured here: RFP channel,"22.4 µM [falling, partial curve, poor fit]"
same,max response,[2]; [10],62.6%
same,AC50,[2]; [14],"39.8 µM [rising, single point]"
same,AC50,[2]; [15],"39.8 µM [rising, single point]"
same,max response,[2]; [11],62.8%
same,IC50,[8],"21.7 µM [falling, partial curve]"
same,IC50,[9],"1.22 µM [falling, full curve]"

# A second format for part of the listing above:
structure (smiles)	measurement	setting	value
c1ccc2c(c1)OCC(C1=NCCN1)O2 (stereo unspecified)	AC50	[5]; measured here: CBG/CBR ratio read-out	18.4 µM [falling, partial curve]
C[N+]1(C)CCC(OC(=O)C(c2ccccc2)c2ccccc2)CC1	AC50	[1]; measured here: RFP channel	35.5 µM [falling, single point]
CC(N)c1cccc(Cl)c1Cl (stereo unspecified)	AC50	[2]; [14]	39.8 µM [rising, single point]
same	IC50	[8]	21.7 µM [falling, partial curve]
